The supplement of paper PMC4635364
This is one part of the list. Repeats in this data set agree poorly, so a single value says little.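 Cells: ReNCell VM human fetal ventral-midbrain neural progenitors, differentiated mitogen-free. Blinded raters compared doublecortin-stained (early neurons) or tyrosine hydroxylase-stained (dopaminergic neurons) images with untreated wells, where 0 means no change. After repeats and both raters were averaged, compounds scoring 2 or above became hits for retesting.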

These molecules were tested on ReNCell VM (assay: dopaminergic neuron differentiation score (TH+ cell fraction vs untreated, manual image score) (score (0 to 3)); higher = more TH+ dopaminergic neuron differentiation). Conditions: library: Spectrum; 2 uM; 4 weeks; BDNF 10 ng/ml + GDNF 10 ng/ml.

Dopaminergic neuron differentiation score, inactive:
CCOC(=O)C1=C(C)NC(C)=C(C(=O)OC)C1c1cccc(Cl)c1Cl (stereo unspecified) 0, Cc1cc(C2CCCCC2)n(O)c(=O)c1 0, COc1cc2c(cc1OC)C(=O)C(CC1CCN(Cc3ccccc3)CC1)C2 (stereo unspecified) 0, COc1ccccc1N1CCN(CCCNc2cc(=O)n(C)c(=O)n2C)CC1 0, C[C@]12CCC(=O)C=C1[C@@H]1C[C@@H]1[C@H]1[C@@H]3[C@@H]4C[C@@H]4[C@@]4(CCC(=O)O4)[C@@]3(C)CC[C@@H]12 0, CN(C)c1cnccn1 0, COc1cc2c(cc1OC)C1(O)C(=O)c3ccc(O)c(C(=O)O)c3OC1CO2 (stereo unspecified) 0, Cc1c(OCC(F)(F)F)ccnc1C[S+]([O-])c1nc2ccccc2[nH]1 (stereo unspecified) 0, CCOC(=O)[C@H](CCc1ccccc1)N[C@@H](C)C(=O)N1Cc2ccccc2C[C@H]1C(=O)O 0, CC(C)(C)NCC(O)COc1cccc2c1CC(O)C(O)C2 (stereo unspecified) 0, CCCCC(CC)CCC(CC(C)C)OS(=O)(=O)O (stereo unspecified) 0, CO[C@H]1/C=C/O[C@@]2(C)Oc3c(C)c(O)c4c(O)c(c(/C=N/N5CCN(C)CC5)c(O)c4c3C2=O)NC(=O)/C(C)=C\C=C\[C@H](C)[C@H](O)[C@@H](C)[C@@H](O)[C@@H](C)[C@H](OC(C)=O)[C@@H]1C 0, c1ccc(CN(CC2=NCCN2)c2ccccc2)cc1 0, Clc1ccc(CCC(Cn2ccnc2)Sc2c(Cl)cccc2Cl)cc1 (stereo unspecified) 0, COC(=O)C1=C(C)NC(C)=C(C(=O)OCCN(C)Cc2ccccc2)C1c1cccc([N+](=O)[O-])c1 (stereo unspecified) 0, OCCN1C[C@H](O)[C@@H](O)[C@H](O)[C@H]1CO 0, COC1=C(OC)C(=O)C(CCCCCCCCCCO)=C(C)C1=O 0, COc1c2ccoc2nc2c(OC)c(OCC(O)C(C)(C)O)ccc12 (stereo unspecified) 0, CC(C)CC(NC(=O)[C@H](C)N)C(=O)O (mixture of isomers) 0, O=c1cc(-c2ccccc2)oc2cccc(O)c12 0

Same assay, conditions: library: Tocriscreen; 2 uM; 4 weeks; BDNF 10 ng/ml + GDNF 10 ng/ml

Dopaminergic neuron differentiation score, inactive:
CN(C)[C@@H]1CCc2[nH]c3ccc(NC(=O)c4ccc(F)cc4)cc3c2C1 0, CCCCCCCCCCCCCCCC(=O)C(F)(F)F 0, O=C(Nc1cc(C(F)(F)F)cc(C(F)(F)F)c1)c1cc(Cl)ccc1O 0, COc1ccc(C2CC(c3c(O)cc(C)oc3=O)=NCCS2)c(OC)c1 (stereo unspecified) 0, c1cnc(N2CCN(Cc3ccc4c(c3)OCO4)CC2)nc1 [Piribedil] 0, CC(=O)NCCc1c(Cc2ccccc2)[nH]c2ccccc12 [Luzindole] 0
